Assay results published in PubChem BioAssay (EPA / NIEHS).
For part of these data: The hits were mostly taken out for another list; the other results follow. Records with an inconclusive call do not appear. This is a selection; strong and weak results do not stand in their true shares. Active and inactive are the calls of the source. How the source made its calls, unless noted: active means hit-call score of the fitted dose curve at least 0.9, where 1 is the maximum; inconclusive means response in the unintended direction; inactive means score below 0.9.

Chains of the proteins cited; added tags and fusions are not shown. Lines headed by an entry give the natural chain unless they say otherwise; changes in a name come on top.
UniProt P10275: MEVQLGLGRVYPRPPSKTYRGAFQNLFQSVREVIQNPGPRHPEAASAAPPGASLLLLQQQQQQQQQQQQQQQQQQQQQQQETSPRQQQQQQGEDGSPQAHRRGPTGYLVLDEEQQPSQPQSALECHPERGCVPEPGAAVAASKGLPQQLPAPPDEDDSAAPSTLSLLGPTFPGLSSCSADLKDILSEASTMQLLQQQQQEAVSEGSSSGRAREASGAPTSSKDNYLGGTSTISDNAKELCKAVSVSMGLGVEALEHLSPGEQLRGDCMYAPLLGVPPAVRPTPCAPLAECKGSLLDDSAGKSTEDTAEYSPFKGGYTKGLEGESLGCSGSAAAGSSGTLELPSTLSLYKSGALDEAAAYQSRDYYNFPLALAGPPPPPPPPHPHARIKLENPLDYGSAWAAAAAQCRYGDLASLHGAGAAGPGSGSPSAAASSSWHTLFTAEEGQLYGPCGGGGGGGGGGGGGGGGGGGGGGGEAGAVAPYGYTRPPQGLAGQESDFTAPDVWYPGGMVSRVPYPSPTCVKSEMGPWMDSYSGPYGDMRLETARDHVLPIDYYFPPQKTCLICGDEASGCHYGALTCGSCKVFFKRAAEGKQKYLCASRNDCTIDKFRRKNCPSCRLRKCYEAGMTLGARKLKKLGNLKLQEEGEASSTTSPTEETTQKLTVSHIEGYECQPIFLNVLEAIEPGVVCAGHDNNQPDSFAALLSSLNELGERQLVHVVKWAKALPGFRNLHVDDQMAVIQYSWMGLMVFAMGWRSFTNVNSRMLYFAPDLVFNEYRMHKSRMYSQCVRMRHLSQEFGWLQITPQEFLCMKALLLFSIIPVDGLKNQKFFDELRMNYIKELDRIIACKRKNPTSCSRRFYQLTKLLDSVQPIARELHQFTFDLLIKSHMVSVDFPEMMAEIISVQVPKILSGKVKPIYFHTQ
UniProt P20813: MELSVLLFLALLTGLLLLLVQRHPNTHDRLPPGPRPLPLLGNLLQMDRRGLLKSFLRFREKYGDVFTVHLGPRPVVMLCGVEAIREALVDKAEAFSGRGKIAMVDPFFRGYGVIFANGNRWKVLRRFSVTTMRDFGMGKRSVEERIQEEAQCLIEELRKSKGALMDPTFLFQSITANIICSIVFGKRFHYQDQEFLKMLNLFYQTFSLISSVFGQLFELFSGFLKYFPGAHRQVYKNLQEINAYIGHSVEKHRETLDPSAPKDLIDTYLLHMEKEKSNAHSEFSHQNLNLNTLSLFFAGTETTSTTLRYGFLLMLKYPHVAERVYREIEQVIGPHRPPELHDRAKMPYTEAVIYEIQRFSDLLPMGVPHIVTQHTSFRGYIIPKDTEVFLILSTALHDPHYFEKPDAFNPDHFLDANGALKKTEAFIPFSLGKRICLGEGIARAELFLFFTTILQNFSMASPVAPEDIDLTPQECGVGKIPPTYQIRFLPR

What was measured:
[1] = Tanguay_ZF_120hpf_PFIN_legacy: (Legacy) Oregon State University Tanguay Lab 120 Hour Post-fertilization zebrafish Assay for Pectoral Fin Malformation (AID 2283648);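 further: each larva judged yes or no for fin defect by brightfield with dead larvae skipped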
Method in brief: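 Pectoral fin malformation was recorded as a binary endpoint at 120 hpf in wild-type Tropical 5D larvae, which had been dechorionated and exposed statically from 6 hpf at 28C in 0.64% DMSO. Dead embryos were excluded.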

[2] = Tanguay_ZF_120hpf_TRUN_legacy: (Legacy) Oregon State University Tanguay Lab 120 Hour Post-fertilization zebrafish Assay for Truncated Body (AID 2283655)
Method in brief: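 Whole-embryo zebrafish screen: dechorionated 5D embryos, static exposure 6–120 hpf, 28C, sealed foil-covered plates, 0.64% DMSO. Binary truncation call; gain of signal versus DMSO baseline.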

[3] = Tanguay_ZF_120hpf_SWIM_legacy: (Legacy) Oregon State University Tanguay Lab 120 Hour Post-fertilization zebrafish Assay for Swim Bladder Malformation (AID 2283654);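 further: swim bladder malformation in each larva scored yes or no under brightfield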
Method in brief: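 Scoring is binary for swim bladder defects at 120 hpf, by brightfield inspection of zebrafish larvae. Embryos were exposed singly from 6 hpf after pronase dechorionation, at 28C with 0.64% DMSO; mortality excluded scoring.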

[4] = biological target: Nucleoli Translocation, AR (gene 367) (UniProt P10275); assay: UPITT_HCI_U2OS_AR_TIF2_Nucleoli_Antagonist: University of Pittsburgh U2OS Androgen Receptor-Transcriptional Intermediary Factor 2 (AR-TIF2) Antagonism High Content Imaging Assay for Nucleoli Translocation (AID 2283997)
Method in brief: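 Antagonism is read as loss of nucleolar AR-RFP signal relative to DHT, imaged in U2OS cells also carrying GFP-TIF2. Compounds screened at 20 uM final, 0.2% DMSO; primary actives retested in triplicate.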

[5] = CCTE_Simmons_CellTiterGLO_HEK293T: Viability Assessment in CCTE's Assays for Thyroperoxidase (TPO) Inhibition, Simmons Lab (AID 2283665);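 further: cells exposed to compound for 24 h before readout; actives reduce ATP signal below DMSO vehicle meaning cytotoxicity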
Method in brief: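 ATP depletion measured in HEK293T cells after 24 h dosing (8 concentrations, 5 nM–87.5 uM final; DMSO 0.5%) using CellTiter-Glo luminescence; curves fit for loss of signal against DMSO baseline.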

[6] = Tanguay_ZF_120hpf_TR_legacy: (Legacy) Oregon State University Tanguay Lab 120 Hour Post-fertilization zebrafish Assay for Touch Response (AID 2283667)
[7] = read-out: organic anion transporter (SLCO1B1), SLCO1B1 (gene 10599); assay: CLD_SLCO1B1_6hr: CellzDirect (CLD) Gene Expression Assay for organic anion transporter (SLCO1B1) at 6 hours (AID 2283668);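 further: active means mRNA induction above DMSO baseline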
Method in brief: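 SLCO1B1 mRNA induction measured 6 h after dosing by quantitative nuclease protection with chemiluminescent read-out, in human primary hepatocyte cultures given chemicals at several concentrations (vehicle 0.2% DMSO). Increase over DMSO baseline fitted; morphology-based cytotoxicity annotated yes/no.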

[8] = read-out: Cytochrome P450 2B6 (Homo sapiens) (UniProt P20813); assay: CLD_CYP2B6_6hr: CellzDirect (CLD) Gene Expression Assay for xenobiotic metabolism (CYP2B6) at 6 hours (AID 2283677);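 further: actives raise CYP2B6 transcript above DMSO baseline so AC50 marks an inducer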
Method in brief: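 CYP2B6 transcript levels, read by chemiluminescent qNPA, were fitted for increase versus DMSO baseline; cultured human liver hepatocytes from two donor preparations were harvested 6 h after exposure to test chemicals at multiple concentrations.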

[9] = test system: Sodium/Iodide Symporter (NIS), SLC5A5 (gene 6528); assay: CPHEA_Stoker_NIS_Inhibition_RAIU: CPHEA's Radioactive Iodide Uptake (RAIU) Assay for Sodium/Iodide Symporter (NIS) Inhibition, Stoker and Laws Labs (AID 2283841)
Method in brief: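 hNIS-HEK293T-EPA cells incubated 2 h at room temperature with compound (0.001–100 uM, 0.5% DMSO) and 329 pM final 125I in HBSS/10 mM HEPES, pH 7.4. Intracellular 125I counted; normalised to DMSO maximal uptake, triplicate, three biological replicates.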

[10] = CCTE_Padilla_ZF_144hpf_TERATOSCORE: (Legacy) CCTE's 144 Hour Post-fertilization zebrafish Assay Teratoscore, Padilla Lab (AID 2283679; active means hit-call score of the fitted dose curve at least 0.9, where 1 is the maximum; inactive means score below 0.9;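 further: zebrafish embryos with chorions exposed by immersion from 6-8 hpf to 5 dpf with daily renewal; teratogenicity score from eye scoring of death hatching and malformations at 144 hpf; higher score means more developmental defects relative to DMSO baseline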)
Method in brief: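 Larvae scored by eye at 144 hpf for death, hatching and malformations after a day in clean Hanks'. Before that, daily-renewed exposure at 80 uM (0.4% DMSO, 26C) from roughly 6-8 hpf through 5 dpf, 4 embryos per chemical.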

[11] = read-out: ABC Transporter (ABCB1), ABCB1 (gene 5243); assay: CLD_ABCB1_24hr: CellzDirect (CLD) Gene Expression Assay for ABC Transporter (ABCB1) at 24 hours (AID 2283684)
Method in brief: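 ABCB1 mRNA induction versus 0.2% DMSO vehicle was read by qNPA chemiluminescence at 24 h. Cultured human hepatocytes from two donor preparations received daily fresh dosing, and phase-contrast cytotoxicity calls were annotated alongside the data.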

[12] = read-out: ABC Transporter (ABCB1), ABCB1 (gene 5243); assay: CLD_ABCB1_48hr: CellzDirect (CLD) Gene Expression Assay for ABC Transporter (ABCB1) at 48 hours (AID 2283695)
Method in brief: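 ABCB1 mRNA was measured by quantitative nuclease protection assay (chemiluminescence) 48 h after dosing. Human hepatocyte cultures from two separate donors received fresh dosing solutions daily for two days, with 0.2% DMSO as vehicle. Positive-direction fit against DMSO.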

[13] = CCTE_Harrill_HTTr_CellCount_MCF7: CCTE's Cell Proliferation Assessment for the High-Throughput Transcriptomics (HTTr) Platform, Harrill Lab (AID 2284012);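 further: count of Hoechst-stained nuclei per well by high-content imaging in MCF-7 cells; cells exposed to compound for six hours; intended direction is loss of nuclei count meaning fewer cells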
Method in brief: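 For this full-screen endpoint, MCF-7 cultures received eight compound dilutions for six hours. Well nuclei counts from Hoechst imaging were analyzed relative to DMSO.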

[14] = read-out: glucuronosyltransferase (UGT1A1), UGT1A1 (gene 54658); assay: CLD_UGT1A1_24hr: CellzDirect (CLD) Gene Expression Assay for glucuronosyltransferase (UGT1A1) at 24 hours (AID 2283696)
Method in brief: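 UGT1A1 transcript induction was measured by quantitative nuclease protection assay (chemiluminescence) in human hepatocyte cultures 24 h after daily fresh dosing, with 0.2% DMSO as vehicle and baseline.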

[15] = read-out: glucuronosyltransferase (UGT1A1), UGT1A1 (gene 54658); assay: CLD_UGT1A1_48hr: CellzDirect (CLD) Gene Expression Assay for glucuronosyltransferase (UGT1A1) at 48 hours (AID 2283709);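 further: actives increase expression relative to DMSO so potency refers to induction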
Method in brief: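 Quantitative nuclease protection assay (chemiluminescent) for UGT1A1 mRNA at 48 h in human hepatocyte cultures from two donors, redosed daily with fresh solutions. Induction fitted relative to 0.2% DMSO; phase-contrast morphology annotated cytotoxicity.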

[16] = test system: chicken Androgen Receptor (AR), gene 422165; assay: ATG_chAR_XSP1: Attagene TRANS-FACTORIAL Multi-Species (XSP1) HepG2 Assay for chicken Androgen Receptor (AR) (AID 2283768)
Method in brief: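 Reporter mRNA read by RT-PCR with fluorescent labelling and capillary electrophoresis 24 h after chemical dosing of transiently transfected HepG2 cells. Chicken AR-Gal4 chimera, partially stimulated with 3 nM 6-alpha-fluorotestosterone; activity fitted upward relative to DMSO.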

[17] = CEETOX_H295R_MTT_cell_viability: Viability Assessment in the CeeTox HT-H295R MTT Assay (AID 2283718; active means hit-call score of the fitted dose curve at least 0.9, where 1 is the maximum; inactive means score below 0.9)
[18] = test system: Thyroperoxidase (TPO), gene 445522; assay: CCTE_Simmons_GUA_TPO: CCTE's Guaiacol Assay for Thyroperoxidase (TPO) Inhibition, Simmons Lab (AID 2283750)
Method in brief: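 Porcine thyroid microsomes (25 ug) in 200mM potassium phosphate, preincubated 30 s at 37C with compound (8 concentrations, 5 nM–87.5 uM) and 35mM guaiacol; 1mM H2O2 starts reaction. Absorbance change at 450nm over first 80 s; loss of signal versus DMSO, three replicates.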

[19] = test system: zebrafish Estrogen Receptor (ESR2B), gene 317733; assay: ATG_zfER2b_XSP1: Attagene TRANS-FACTORIAL Multi-Species (XSP1) HepG2 Assay for zebrafish Estrogen Receptor (ESR2B) (AID 2283773)
Method in brief: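 Medium contained 3 nM 6-alpha-fluorotestosterone. Reporter mRNA induction by exogenous zebrafish ER2b-Gal4 chimera was read 24 h post-dose in transiently transfected HepG2 cells, using RT-PCR, fluorescent labelling, HpaI digestion and capillary electrophoresis.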

[20] = test system: frog Estrogen Receptor (ESR2), gene 100174814; assay: ATG_frER2_XSP1: Attagene TRANS-FACTORIAL Multi-Species (XSP1) HepG2 Assay for frog Estrogen Receptor (ESR2) (AID 2283774)
Method in brief: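 Reporter mRNA from a multiplexed TRANS system, measured by RT-PCR with fluorescent labelling and capillary electrophoresis, 24 hours after chemical exposure. Human HepG2 liver cells carried exogenous frog ER-Gal4 chimera; medium included 3 nM 6-alpha-fluorotestosterone; increases versus DMSO analysed.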

[21] = test system: turtle Androgen Receptor (AR), gene 101947425; assay: ATG_trAR_XSP2: Attagene TRANS-FACTORIAL Multi-Species (XSP2) HepG2 Assay for turtle Androgen Receptor (AR) (AID 2283815)
Method in brief: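 Reporter transcripts were quantified via RT-PCR and capillary electrophoresis and fitted upward against DMSO. Transiently transfected human HepG2 cells carrying NR-Gal4 chimeras were exposed 24 h, with 3 nM 6-alpha-fluorotestosterone plus 1.5 nM norgestrel added.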

[22] = CCTE_Mundy_HCI_hNP1_Pro_ResponderAvgInten: CCTE's Proliferation Assay in human neuroprogenitor cells, Mundy Lab (AID 2284224)
Method in brief: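 Proliferation was scored as BrdU labelling intensity in human neural progenitors derived from WA09 embryonic cells, measured 26.25 hours after chemical dosing. Activity was fitted relative to DMSO.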

[23] = CCTE_Mundy_HCI_hNP1_CellTiter: CCTE's Cell Titer-Glo 2 Assay in human neuroprogenitor cells for Viability, Mundy Lab (AID 2284241);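 further: a hit is a drop in ATP luminescence versus DMSO meaning reduced viability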
Method in brief: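 Human neural progenitor cells (hNP1, WA09-derived) were plated on poly-L-ornithine/laminin and grown 40 to 44 hours at 37 °C, 5% CO2 before chemical addition. Twenty-four hours later, ATP was measured by CellTiter-Glo luminescence; loss of signal versus DMSO indicates reduced viability.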

[24] = ACEA_ER_AUC_viability: ACEA Biosciences xCELLigence Real-Time Cell Analysis on Estrogen Receptor Agonism for Viability (AID 2283782);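 further: hit means loss of impedance signal meaning reduced cell growth or viability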
Method in brief: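 Viability endpoint: reduced impedance area under the curve relative to DMSO, recorded by real-time electrode sensing over ~80 h of continuous exposure. Duplicate plates of T47D in hormone-depleted medium; eight concentrations, 1:4 dilutions, 100 uM maximum.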

[25] = STM_H9_NormalizedViability: Cytotoxicity Assessment at 120 hours in the Stemina devTOX quickPredict H9 human embryonic stem cell (hESC)-based Assay (AID 2283784)
Method in brief: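 Here, H9 cells received test compound with daily medium renewal. Each plate included methotrexate references (1uM, 5 nM), 0.1% DMSO and media blanks; CellTiter-Fluor RFU was normalized to DMSO.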

c1ccc2c(c1)Nc1ccccc1S2
outcome [1]: inactive | outcome [2]: inactive

Cc1ccc([N+](=O)[O-])cc1C
outcome [3]: inactive

O=C(Nc1ccccc1)Nc1ccnc(Cl)c1
outcome [2]: inactive | AC50 [4]: active: 9.92 µM

C#CCC1=C(C)C(OC(=O)C2C(C=C(C)C)C2(C)C)CC1=O (configuration not stated)
AC50 [5]: active: 64.2 µM

Nc1ccc2ccccc2c1
AC50 [6]: active: 63.7 µM

CNC(=O)ON=CC(C)(C)SC
outcome [7]: inactive

CC1(C)C(C=C(Cl)Cl)C1C(=O)OC(C#N)c1ccc(F)c(Oc2ccccc2)c1 (configuration not stated)
AC50 [8]: active: 20 µM | outcome [9]: inactive

CCC(C)Nc1c([N+](=O)[O-])cc(C(C)(C)C)cc1[N+](=O)[O-] (configuration not stated)
AC50 [10]: active: 15.8 µM

COC(=O)NC(=S)Nc1ccccc1NC(=S)NC(=O)OC
outcome [11]: inactive

CC(Oc1ccc(Cl)cc1Cl)C(=O)O (configuration not stated)
outcome [12]: inactive | outcome [13]: inactive

C=C(C)CN(CC)c1c([N+](=O)[O-])cc(C(F)(F)F)cc1[N+](=O)[O-]
outcome [14]: inactive

C#CCOS(=O)OC1CCCCC1Oc1ccc(C(C)(C)C)cc1 (configuration not stated)
outcome [15]: inactive | AC50 [16]: active: 3.82 µM

N#CC(Br)(Br)C(N)=O
outcome [17]: inactive

Cc1ccc(N)cc1
AC50 [18]: active: 4.91 µM

CC1(C)CCC(=Cc2ccc(Cl)cc2)C1(O)Cn1cncn1 (configuration not stated)
AC50 [19]: active: 53.6 µM

CCCCOC(=O)c1ccccc1C(=O)OCCCC
AC50 [20]: active: 29.9 µM | outcome [21]: inactive | AC50 [22]: active: 72.2 µM | AC50 [23]: active: 87.2 µM

CCc1cccc(C)c1N(C(=O)CCl)[C@@H](C)COC
outcome [24]: inactive

CCOC(=O)COc1ccc(Cl)cc1Cl
outcome [24]: inactive

Cn1cc(-c2ccccc2)c(=O)c(-c2cccc(C(F)(F)F)c2)c1
outcome [25]: inactive
